The results in this text go back to article PMC10392025.

Chains of the proteins cited; added tags and fusions are not shown.
UniProt Q92769: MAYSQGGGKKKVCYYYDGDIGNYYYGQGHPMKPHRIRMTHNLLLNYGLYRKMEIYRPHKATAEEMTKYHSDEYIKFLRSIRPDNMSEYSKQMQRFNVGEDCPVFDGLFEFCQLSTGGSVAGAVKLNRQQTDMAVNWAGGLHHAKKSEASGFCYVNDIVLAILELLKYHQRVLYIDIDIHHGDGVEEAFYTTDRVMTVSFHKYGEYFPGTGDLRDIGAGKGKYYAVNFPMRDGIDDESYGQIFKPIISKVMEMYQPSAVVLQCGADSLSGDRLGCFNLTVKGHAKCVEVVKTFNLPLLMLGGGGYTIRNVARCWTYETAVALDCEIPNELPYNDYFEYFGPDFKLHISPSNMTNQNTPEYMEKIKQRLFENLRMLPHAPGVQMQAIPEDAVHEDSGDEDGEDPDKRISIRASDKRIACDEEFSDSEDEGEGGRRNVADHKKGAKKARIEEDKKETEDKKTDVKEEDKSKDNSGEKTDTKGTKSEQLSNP

These are yes or no findings as the source states them, for the method shown. Binding seen in cells or lysates may run through a third protein. Some entries that bind do so weakly or less than the wild type. For some assays here: Tags and fused reporters may be left off the sequences shown.

For assay [1], the target named is T1, XPO7 (Exportin 7), endogenous in hMSCs (human (endogenous in hMSCs)) (UniProt Q9UIA9).
T1 sequence: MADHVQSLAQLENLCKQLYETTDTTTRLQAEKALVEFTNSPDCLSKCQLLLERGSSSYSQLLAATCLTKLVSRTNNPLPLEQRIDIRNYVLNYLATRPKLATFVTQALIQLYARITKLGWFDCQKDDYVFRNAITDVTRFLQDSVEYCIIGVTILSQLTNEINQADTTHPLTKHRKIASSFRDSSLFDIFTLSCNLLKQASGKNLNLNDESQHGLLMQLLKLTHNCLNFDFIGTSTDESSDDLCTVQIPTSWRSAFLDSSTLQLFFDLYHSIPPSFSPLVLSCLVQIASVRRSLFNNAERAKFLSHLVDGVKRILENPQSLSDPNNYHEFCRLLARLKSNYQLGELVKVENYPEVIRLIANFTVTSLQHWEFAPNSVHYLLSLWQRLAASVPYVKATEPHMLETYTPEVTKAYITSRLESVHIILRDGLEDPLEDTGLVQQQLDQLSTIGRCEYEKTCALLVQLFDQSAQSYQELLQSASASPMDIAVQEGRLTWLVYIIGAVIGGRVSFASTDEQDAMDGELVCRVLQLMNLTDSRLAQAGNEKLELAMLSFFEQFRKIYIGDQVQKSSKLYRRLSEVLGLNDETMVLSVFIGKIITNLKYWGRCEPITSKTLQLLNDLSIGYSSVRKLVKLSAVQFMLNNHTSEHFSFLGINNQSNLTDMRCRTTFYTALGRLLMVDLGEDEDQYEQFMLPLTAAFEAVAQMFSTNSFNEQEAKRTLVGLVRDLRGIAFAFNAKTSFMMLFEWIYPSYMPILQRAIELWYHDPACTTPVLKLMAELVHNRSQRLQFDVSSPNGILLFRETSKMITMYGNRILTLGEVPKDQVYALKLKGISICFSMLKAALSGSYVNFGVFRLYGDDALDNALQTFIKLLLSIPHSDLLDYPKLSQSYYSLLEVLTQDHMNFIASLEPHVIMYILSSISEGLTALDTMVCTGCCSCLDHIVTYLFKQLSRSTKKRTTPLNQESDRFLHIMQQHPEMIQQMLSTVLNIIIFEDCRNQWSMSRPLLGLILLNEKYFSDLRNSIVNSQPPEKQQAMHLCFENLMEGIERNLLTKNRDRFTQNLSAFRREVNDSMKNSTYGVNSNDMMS
Description: co-IP; endogenous Co-IP of HDAC2 and XPO7 in hMSCs.

For another assay, the target named is T2, FLAG-tagged XPO7 protein (UniProt Q9UIA9).
T2 sequence: T1 sequence
Description: co-IP; exogenous Co-IP of HDAC2 and FLAG-XPO7 in HEK293T cells.

Consider “HDAC2 (histone deacetylase 2), endogenous in hMSCs (from UniProt Q92769 1-488)”, for which the binding result in assay [1] is given as “binds”. On to “HDAC2 (histone deacetylase 2) in HEK293T cells (from UniProt Q92769 1-488)”, for which, in the assay with FLAG-tagged XPO7 protein, the binding entry is reported as “binds”.
